Measured data: PubChem BioAssay AID1259308 (NCATS, 2017)

Test: 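Candidate targets for better recombinant protein yield in mammalian cells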 (primary screen)
Cells: human HEK293 embryonic kidney cells stably expressing firefly luciferase (HEK-CMV-Luc2-Hygro)
Reagents: single siRNA against human genes, 0.8 pmol siRNA per well
Timing: 72 h
Measured: 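Luciferase light (ONE-Glo) measured on one replicate plate set and viability (CellTiter-Glo) on the other, scaled to a negative control siRNA, with robust z-scores and luciferase per cell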
Direction: total luciferase, z-score: higher = more reporter protein produced
Active means: 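Active when the median/MAD z-score for overall luciferase is greater than 3; a gene was taken forward for validation with new siRNAs if at least two of its three siRNAs passed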
Calls: active = raised luciferase; inactive = no rise
The deposit covers about 59,000 reagents; this is an unselected part. Over the whole deposit, about 1,510 (2.6%) got an active call. 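Calls use total luciferase alone and ignore viability, so some active siRNAs may act by altering cell number.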 Entries without a mark were called inactive. Reagents against one gene are numbered here. Further read-outs or replicates are left out here.

For THAP9 (THAP domain containing 9) #1, how do the results read?
total luciferase, z-score: -0.484

With THAP9 (THAP domain containing 9) #2, how do the results read?
total luciferase, z-score: 1.97

For THAP9 (THAP domain containing 9) #3, how do the results read?
total luciferase, z-score: -0.913

Which result is listed for BEND2 (BEN domain containing 2) #1?
total luciferase, z-score: 0.808

With BEND2 (BEN domain containing 2) #2, what does the deposit list?
total luciferase, z-score: -0.218

What did the screen give for BEND2 (BEN domain containing 2) #3?
total luciferase, z-score: -1.09

Which result is listed for NRROS (negative regulator of reactive oxygen species) #1?
total luciferase, z-score: 0.157

For NRROS (negative regulator of reactive oxygen species) #2, how do the results read?
total luciferase, z-score: -0.0125

For NRROS (negative regulator of reactive oxygen species) #3, how do the results read?
total luciferase, z-score: -0.12

Which result is listed for ESPNP (espin pseudogene) #1?
total luciferase, z-score: 1.81

For ESPNP (espin pseudogene) #2, what does the deposit list?
total luciferase, z-score: -0.449

What is on record for ESPNP (espin pseudogene) #3?
total luciferase, z-score: -3.54

Which result is listed for R3HDM1 (R3H domain containing 1) #1?
total luciferase, z-score: -0.0182

With R3HDM1 (R3H domain containing 1) #2, how do the results read?
total luciferase, z-score: -0.62

For R3HDM1 (R3H domain containing 1) #3, what does the deposit list?
total luciferase, z-score: 0.171

For LOC440300 (chondroitin sulfate proteoglycan 4 pseudogene) #1, how do the results read?
total luciferase, z-score: 2.36

For LOC440300 (chondroitin sulfate proteoglycan 4 pseudogene) #2, what was measured?
total luciferase, z-score: 0.278

For LOC440300 (chondroitin sulfate proteoglycan 4 pseudogene) #3, what does the deposit list?
total luciferase, z-score: 2.48

With OR8B12 (olfactory receptor family 8 subfamily B member 12) #1, what does the deposit list?
total luciferase, z-score: -1.32

What did the screen give for OR8B12 (olfactory receptor family 8 subfamily B member 12) #2?
total luciferase, z-score: -1.2

What did the screen give for OR8B12 (olfactory receptor family 8 subfamily B member 12) #3?
total luciferase, z-score: -0.0329

How did the screen score DDA1 (DET1 and DDB1 associated 1) #1?
total luciferase, z-score: -1.24

For DDA1 (DET1 and DDB1 associated 1) #2, what does the deposit list?
total luciferase, z-score: -0.209

How did the screen score DDA1 (DET1 and DDB1 associated 1) #3?
total luciferase, z-score: -0.6

With SEPTIN3 (septin 3) #1, how do the results read?
total luciferase, z-score: -0.661

What did the screen give for SEPTIN3 (septin 3) #2?
total luciferase, z-score: -0.225

For SEPTIN3 (septin 3) #3, what does the deposit list?
total luciferase, z-score: 4.54 (active)

How did the screen score RPSAP19 (ribosomal protein SA pseudogene 19) #1?
total luciferase, z-score: -0.0408

With RPSAP19 (ribosomal protein SA pseudogene 19) #2, how do the results read?
total luciferase, z-score: -3.19

What is on record for RPSAP19 (ribosomal protein SA pseudogene 19) #3?
total luciferase, z-score: -2.25

What did the screen give for CTSG (cathepsin G) #1?
total luciferase, z-score: -1.46

Which result is listed for CTSG (cathepsin G) #2?
total luciferase, z-score: -0.706

For CTSG (cathepsin G) #3, how do the results read?
total luciferase, z-score: 1.46

2 entries from above, set out differently.
{"gene": "CTSG (cathepsin G)", "siRNA no.": 1, "total luciferase, z-score": -1.46}
{"gene": "CTSG (cathepsin G)", "siRNA no.": 2, "total luciferase, z-score": -0.706}
